Consider 17 molecules from PubChem BioAssay AID180 (DTP/NCI, 2004).

This assay relates to BDF1 mice, Adenocarcinoma 755 s.c., tumor weight T/C. In words: NCI In Vivo Anticancer Drug Screen. Data for tumor model Adenocarcinoma 755 (subcutaneous) in B6D2F1 (BDF1) mice. The following applies: T/C endpoint: mean tumor weight, higher T/C = larger tumour; for T/C: evaluated on day 12. In a few lines:
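Readout: T/C, i.e. treated-group measurement over vehicle-control measurement. Endpoint is survival or tumor size in tumor-bearing mice given compound.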

The mark [1] stands for this setting: dose: 560.0 mg/kg/injection, schedule: Q01DX001 (ip), vehicle: saline.

SMILES strings stand for the structures. The list shows only some results of the screen, not a fair sample: it gathers tests that were run many times, whatever their T/C, doses with no T/C, and many T/C values between a quarter and a half above the control. Other doses and runs of a compound stand elsewhere. T/C is the treated group as % of the vehicle group. Schedules are NCI's codes, taken here to give the interval after Q, in days (D) or hours (H), and the number of doses after X. Some T/C values are followed by the survivors on the day toxicity was checked, most often the fifth; where none is given, no animal had died by that day. Some entries were tested several times; their values stand side by side, smallest first. Some doses have a count of surviving animals in place of a T/C: the source files T/C as zero there, which appears to mark a toxic dose or a test without result, not a measured value. Counts of survivors are from the toxicity check (mostly the fifth day) where no day follows; animals may have died later.

For `Nc1c(Br)cc2c(c1Br)Cc1cc([N+](=O)[O-])ccc1-2`, the T/C (dose: 12.0 mg/kg/injection, schedule: Q01DX011 (ip), vehicle: other) was 126 % of control. For the same molecule, the survivor count is, setting by setting: (dose: 225.0 mg/kg/injection, schedule: Q01DX011 (ip), vehicle: saline) 4 of 10; (dose: 400.0 mg/kg/injection, schedule: Q01DX011 (ip), vehicle: carboxymethylcellulose (CMC)) 3 of 10; (dose: 450.0 mg/kg/injection, schedule: Q01DX011 (ip), vehicle: saline) 1 of 10; (dose: 900.0 mg/kg/injection, schedule: Q01DX011 (ip), vehicle: saline) 0 of 10.
`CS(=O)(=O)OCCCCOS(C)(=O)=O`: the T/C (dose: 7.5 mg/kg/injection, schedule: Q03DX004 (ip), vehicle: saline) is 127 % of control; the T/C (dose: 8.0 mg/kg/injection, schedule: Q01DX011 (ip), vehicle: carboxymethylcellulose (CMC)) is 133 % of control; the T/C (dose: 40.0 mg/kg/injection, schedule: Q01DX011 (ip), vehicle: saline) is recorded as 49, 56, 62, 79 % of control; the T/C (dose: 70.0 mg/kg/injection, schedule: Q01DX001 (ip), vehicle: saline) was 130 % of control; the T/C (dose: 80.0 mg/kg/injection, schedule: Q01DX011 (ip), vehicle: saline) was 23 [9 of 10 alive], 24, 35, 39 % of control; the T/C (dose: 280.0 mg/kg/injection, schedule: Q01DX001 (ip), vehicle: saline) is 130 and 131 % of control [9 of 10 alive]. Besides, the T/C under setting [1] is given as 59, 102, 120 % of control. Moreover, the survivor count by setting is: (dose: 53.3 mg/kg/injection, schedule: Q01DX011 (ip), vehicle: carboxymethylcellulose (CMC)) 3 of 10; (dose: 80.0 mg/kg/injection, schedule: Q01DX011 (im), vehicle: saline) 0 of 10; (dose: 140.0 mg/kg/injection, schedule: Q01DX011 (ip), vehicle: carboxymethylcellulose (CMC)) 2 of 10; (dose: 160.0 mg/kg/injection, schedule: Q01DX011 (sc), vehicle: saline) 0 of 10; (dose: 320.0 mg/kg/injection, schedule: Q01DX011 (ip), vehicle: saline) 0 of 10; (dose: 320.0 mg/kg/injection, schedule: Q01DX011 (sc), vehicle: saline) 0 of 10. Besides, the survivor count is on record as 0 of 10 (dose: 480.0 mg/kg/injection, schedule: Q03DX004 (ip), vehicle: saline); 0 of 10 under setting [1]; 5 of 10 (dose: 560.0 mg/kg/injection, schedule: Q07DX002 (ip), vehicle: saline); 0 of 10 (dose: 1120.0 mg/kg/injection, schedule: Q01DX001 (ip), vehicle: saline).
On to `O=P(Oc1ccccc1)(OP(=O)(Oc1ccccc1)N(CCCl)CCCl)N(CCCl)CCCl` (centres undefined), for which the survivor count (dose: 100.0 mg/kg/injection, schedule: Q01DX011 (ip), vehicle: other) was 6 of 10.
`CNc1ncnc2c1ncn2C1CC(O)C(CO)O1` (centres undefined): the T/C by setting is: (dose: 30.0 mg/kg/injection, schedule: Q01DX011 (ip), vehicle: saline) 126 % of control; (dose: 240.0 mg/kg/injection, schedule: Q01DX011 (ip), vehicle: saline) 145 % of control.
On to `Nc1nc(=S)c2ncn(C3OC(COC(=O)c4ccc([N+](=O)[O-])cc4)C(OC(=O)c4ccc([N+](=O)[O-])cc4)C3OC(=O)c3ccc([N+](=O)[O-])cc3)c2[nH]1` (centres undefined), for which the survivor count is recorded as 0 of 10 (dose: 25.0 mg/kg/injection, schedule: Q01DX011 (ip), vehicle: carboxymethylcellulose (CMC)) and 0 of 10 (dose: 50.0 mg/kg/injection, schedule: Q01DX011 (ip), vehicle: carboxymethylcellulose (CMC)).
As to `COc1cccc2c1cc([N+](=O)[O-])c1c(C(=O)O)cc3c(c12)OCO3`, the survivor count (dose: 150.0 mg/kg/injection, schedule: Q01DX011 (ip), vehicle: other) is 4 of 10.
Take `CN(Cc1cnc2nc(N)nc(N)c2n1)c1ccc(C(=O)N[C@@H](CCC(=O)O)C(=O)O)cc1`: the survivor count (dose: 2.5 mg/kg/injection, schedule: Q01DX011 (ip), vehicle: carboxymethylcellulose (CMC)) is listed as 3 of 10; the survivor count (dose: 3.0 mg/kg/injection, schedule: Q01DX011 (ip), vehicle: carboxymethylcellulose (CMC)) is 1 of 10; the survivor count (dose: 3.5 mg/kg/injection, schedule: Q01DX011 (ip), vehicle: carboxymethylcellulose (CMC)) is 2 of 10; the survivor count (dose: 4500.0 micrograms/kg/injection, schedule: Q01DX011 (ip), vehicle: carboxymethylcellulose (CMC)) was 3 of 10.
For `N#CCCn1cnc2c(Cl)ncnc21`, the T/C (dose: 25.0 mg/kg/injection, schedule: Q01DX011 (ip), vehicle: other) is 148 % of control.
Regarding `Nc1nc(Nc2ccccc2Cl)cc(=O)[nH]1`, the T/C is, setting by setting: (dose: 31.0 mg/kg/injection, schedule: Q01DX011 (ip), vehicle: methylcellulose (MC)) 127 % of control [9 of 10 alive]; (dose: 125.0 mg/kg/injection, schedule: Q01DX011 (ip), vehicle: methylcellulose (MC)) 147 % of control [8 of 10 alive]. Besides, the survivor count (dose: 250.0 mg/kg/injection, schedule: Q01DX011 (ip), vehicle: methylcellulose (MC)) was 4 of 10.
`COc1cc([C@@H]2c3cc4c(cc3[C@H](O)[C@H]3COC(=O)[C@H]23)OCO4)cc(OC)c1OC`: the T/C (dose: 0.13 mg/kg/injection, schedule: Q01DX011 (ip), vehicle: carboxymethylcellulose (CMC)) is 135 % of control.
Consider `CSc1ncc(Br)c(Sc2nc(N)nc3nc[nH]c23)n1`, for which the survivor count (dose: 22.5 mg/kg/injection, schedule: Q01DX011 (ip), vehicle: carboxymethylcellulose (CMC)) is on record as 1 of 10.
Turning to `COc1ccc2c3c([nH]c2c1)[C@H]1C[C@H]2[C@H](C[C@@H](O)[C@H](OC)[C@H]2CO)CN1CC3`, the T/C (dose: 0.25 mg/kg/injection, schedule: Q01DX011 (ip), vehicle: saline) is 132 % of control.
On to `ClCCN(CCCl)c1ccc(/C=C\c2ccnc3ccccc23)cc1`, for which the survivor count (dose: 230.0 mg/kg/injection, schedule: Q01DX011 (ip), vehicle: carboxymethylcellulose (CMC)) is listed as 0 of 10.
Regarding `Nc1nc(SCc2ccccc2)c2[nH]cnc2n1`, the T/C is, setting by setting: (dose: 0.37 mg/kg/injection, schedule: Q01DX011 (im), vehicle: carboxymethylcellulose (CMC)) 139 % of control; (dose: 0.75 mg/kg/injection, schedule: Q01DX011 (im), vehicle: carboxymethylcellulose (CMC)) 137 % of control. The survivor count (dose: 15.0 mg/kg/injection, schedule: Q01DX011 (ip), vehicle: carboxymethylcellulose (CMC)) was 6 of 10; the survivor count (dose: 32.0 mg/kg/injection, schedule: Q01DX011 (ip), vehicle: carboxymethylcellulose (CMC)) is 1 of 10; the survivor count (dose: 48.0 mg/kg/injection, schedule: Q01DX006 (iv), vehicle: carboxymethylcellulose (CMC)) is listed as 4 of 10; the survivor count (dose: 64.0 mg/kg/injection, schedule: Q01DX006 (iv), vehicle: carboxymethylcellulose (CMC)) is 1 of 10; the survivor count (dose: 64.0 mg/kg/injection, schedule: Q01DX011 (im), vehicle: carboxymethylcellulose (CMC)) was 1 of 10.
Take `N#[N+]c1nc[nH]c1C(N)=O`: the survivor count is given as 5 of 10 (dose: 2.5 mg/kg/injection, schedule: Q01DX011 (ip), vehicle: methylcellulose (MC)) and 3 of 10 (dose: 5.0 mg/kg/injection, schedule: Q01DX011 (ip), vehicle: methylcellulose (MC)).
For `O=C(O)CCCc1ccc(N(CCCl)CCCl)cc1`, the survivor count is given as 1 of 10 (dose: 16.0 mg/kg/injection, schedule: Q01DX011 (ip), vehicle: saline); 4 of 10 (dose: 25.0 mg/kg/injection, schedule: Q01DX011 (ip), vehicle: methylcellulose (MC)); 4 of 10 (dose: 1450.0 micrograms/kg/injection, schedule: Q01DX011 (ip), vehicle: carboxymethylcellulose (CMC)).
Turning to `OC1CC([CH2][Hg][Cl])OC([CH2][Hg][Cl])C1` (centres undefined), the survivor count (dose: 100.0 mg/kg/injection, schedule: Q01DX011 (ip), vehicle: carboxymethylcellulose (CMC)) was 0 of 10 and the survivor count (dose: 200.0 mg/kg/injection, schedule: Q01DX011 (ip), vehicle: carboxymethylcellulose (CMC)) was 0 of 10.
